In US20240009285A1 one finds binding data, which are given here for 1 molecule.

These are yes or no findings as the source states them, for the method shown. Binding calls can cover weak binding; strength is not graded here.

This assay concerns the target lamprey DY-synuclein~GFP (lamprey). Briefly: nanobody library screen against DY-synuclein.

B1: DB1 (VHH)
VHH: EVQLQASGGGFVQPGGSLRLSCAASGFTSWEDTMGWFRQAPGKEREFVSAISFDANDLSDTSVYYADSVKGRFTISRDNSKNTVYLQMNSLRAEDTATYYCAVASFEILLYGESLHIYWGQGTQVTVSS
For B1, the binding entry is “binds”.
